# Laboratory results as given in PubChem BioAssay AID2685 (National Center for Advancing Translational Sciences (NCATS), 2010).
# The campaign covered roughly 320,000 compounds. About 2,100 (0.66%) were called active. The inconclusive results got no clear call from the source; some entries with a clear call stand among them for comparison. Calls come from the whole dose curve; as a rule, active = well fitted inhibition curve with a large enough effect in the signal ratio, with a control signal flat (not every such curve was filed as active); inconclusive = small, poorly fitted or top-dose-only effect, or effect the other way, or a change in a side signal; inactive = flat fitted curve, though single readings scatter; the % refers to the signal ratio. Potencies of inconclusive entries are doubtful fits and often do not repeat.
# Assay: qHTS Assay for Lipid Storage Modulators in Drosophila S3 Cells
# Settings: BODIPY lipid droplet fluorescence, 18-24 h, cells fed with added oleic acid; lipid storage change, negative = inhibition: at 46.1 µM (top of the series) unless noted
# Method in brief: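 Laser-scanning cytometry quantifies lipid droplet accumulation (500–530 nm total intensity; droplet/cell object ratio) in oleic acid-fed (400 uM added) Drosophila S3 cells treated with a concentration series. 20 uM Triacsin C defined 100% inhibition.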
# % is set by controls: 0 for no effect and ±100 for the full control effect; potency is the fitted concentration of half-maximal effect.
Compound,"lipid storage change, negative = inhibition",Potency
C/C(=C/CCC(C)C1CCC2(C)C3CCC4C(C)(C)C(=O)CCC4(C)C3=CCC12C)C(=O)O (stereo not drawn),inconclusive: -29.1%,
O=C(Nc1ccc(SC(F)F)cc1)c1ccc(F)cc1,inconclusive: 43.5%,
COc1ccc(-c2[nH]ncc2CN(C)Cc2cnccn2)c(OC)c1,inconclusive: -6.94%,
Cc1ccccc1OCc1nnc(SCC(=O)Nc2ccc3nc(SCC(=O)Nc4ccccc4)sc3c2)n1C,inconclusive: 20.8%,
CC(=O)NNc1cc(C)nc(N)n1,inconclusive: 22.4%,
Cc1cc(C)cc(NC(=O)CS(=O)(=O)c2ccccc2)c1,,"inconclusive: 2.91 µM [activator, single point]"
Cc1ccc(NC(=O)CCS(=O)(=O)c2ccc3nc(C)sc3c2)cc1,,"inconclusive: 32.6 µM [rising, single point]"
Nc1nc(NCc2ccco2)nc(NC2CCCCC2)c1[N+](=O)[O-],inconclusive: 20.6%,
CC(=O)c1ccc(N2CCN(CC(O)COCc3ccco3)CC2)cc1 (stereo not drawn),inconclusive: -9.53%,
CC(C)CN(CCNC(=O)CN1C(=O)COc2ccc(S(=O)(=O)N3CCC(C)CC3)cc21)CC(C)C,,"inconclusive: 25.9 µM [activator, single point]"
CC(C)(C)OC(=O)[C@H](NC(=O)OCc1ccccc1)c1ccccc1,inactive,
O=C(Nc1nc2nc(-c3ccccc3)cc(=O)n2[nH]1)c1ccc(F)cc1,inconclusive: 12.3%,
CCCN1CCN(C(=O)C2CCN(S(=O)(=O)c3ccc4c(c3)NC(=O)C(C)S4)CC2)CC1 (stereo not drawn),inconclusive: 94.6%,
O=S(=O)(NCc1cccnc1)c1cccs1,inconclusive: -39.9%,
O=C(CSc1ncnc2ccccc12)Nc1cccc(S(=O)(=O)N2CCOCC2)c1,inactive,
COc1ccc(-c2cc(C(F)F)n3ncc(C(=O)N4CCCCC4)c3n2)cc1,,"inconclusive: 32.6 µM [falling, partial curve]"
Fc1ccccc1COc1ccccc1/C=N/Nc1nc(N2CCCC2)nc(N2CCCC2)n1,inconclusive: 24.4%,
CCCNC(=O)C1(S(=O)(=O)c2ccccc2)CC=CC1,,"inconclusive: 29.1 µM [activator, single point]"
COc1cc(OC)c(OC)cc1CNCCNC(=O)c1nonc1N,inconclusive: -4.3%,
Nn1c(-c2ccco2)n[nH]c1=S,,"inconclusive: 0.411 µM [falling, full curve, poor fit]"
Cc1nc(CN2CCCCC2)cc(=O)[nH]1,inconclusive: -31.7%,
COc1cc(OC)c(NS(=O)(=O)c2cc(C(=O)OC(C)C(=O)NC3CC3)c(Cl)cc2Cl)cc1Cl (stereo not drawn),inconclusive: 8.99%,
CC(C)n1c(NCc2ccccc2O)nc2ccccc21,inconclusive: -22.3%,
CC(=O)Oc1ccc2nc(/C=C/c3ccccc3)oc(=O)c2c1,,"inconclusive: 16.4 µM [activator, single point]"
O=C(CSc1ncnc2sc3c(c12)CCCC3)c1ccco1,,"inconclusive: 1.3 µM [activator, full curve]"
COc1ccc(Cl)c(N2CCN(CCCNC(=O)Nc3ccc(C)cc3)CC2)c1,,"inconclusive: 23.1 µM [activator, single point]"

Compound,"lipid storage change, negative = inhibition",Potency
CC(=O)N(CCCc1ccc(C(C)(C)C)cc1)CCCN(C)C,inconclusive: 73%,
O=C(Nc1cccnc1Cl)c1cc(-c2ccc(Cl)cc2)on1,,"inconclusive: 6.51 µM [activator, single point]"
Cn1c(C(=O)NCc2ccc3c(c2)OCO3)cc2sccc21,,"inconclusive: 25.9 µM [activator, single point]"
CCCOc1ccc(-c2nn(-c3ccccc3)cc2/C=C2\SC(=S)N(C3CCS(=O)(=O)C3)C2=O)cc1 (stereo not drawn),inconclusive: 11.8%,
CC1(C)OC(=O)C(=CNc2ccc(F)cc2)C(=O)O1,,"inconclusive: 20.6 µM [activator, single point]"
COc1cc(C(=O)NC(=S)NCc2ccco2)cc(OC)c1OC,inconclusive: -37.9%,
CC(O)C(=O)N/N=C/c1cccc(Cl)c1Cl (stereo not drawn),inconclusive: 37.3%,
COCCN(C(=O)c1ccccc1)c1nnc(-c2cccnc2)s1,inconclusive: 20%,
c1ccc(-c2cc(-c3nc4ccccc4[nH]3)c3ccccc3n2)cc1,inconclusive: -9.76%,
O=c1cnc2ccccc2n1Cc1ccccc1C(F)(F)F,inconclusive: 30.4%,
COCCNC(=O)/C(C#N)=C/c1cccc(/C=C(\C#N)C(=O)NCCOC)c1,inconclusive: -9.7%,
Cc1ccc(C)c(NC(=O)CN(C)C(=O)c2sccc2C)c1,,active: 4.61 µM
COc1cc(/C=C(\C#N)C(=O)Nc2cc(C(F)(F)F)ccc2Cl)ccc1OCC(=O)Nc1cccc(C(F)(F)F)c1,inconclusive: -24.7%,
C/C(=N\NC(=O)c1c[nH]c2ccccc12)c1ccccn1,inconclusive: 34.5%,
CCCCn1c(CCC)nc([N+](=O)[O-])c1Sc1ccc(Cl)cn1,,"inconclusive: 16.4 µM [falling, single point]"
O=C(OCC(=O)N1CCOCC1)c1ccc(Br)cc1,,"inconclusive: 23.1 µM [activator, single point]"
Cc1cccc(N(NC(=O)C(C)(C)O)C(=O)c2ccccc2)c1,inactive,
COc1cccc(CN2CCNC(=O)C2CC(=O)NCC(C)(C)N2CCOCC2)c1OC (stereo not drawn),inconclusive: 36.9%,
NC(=O)c1ccc(NC(=O)COC(=O)CNC(=O)c2sc3ccccc3c2Cl)cc1,,"inconclusive: 0.103 µM [falling, full curve, poor fit]"
COc1ccc(-n2ncc3c2CC(C)(C)CC3NC(=O)CCn2nc(C)cc2C)cc1 (stereo not drawn),inconclusive: 164%,
CCCOC(=O)c1ccc(-n2nnnc2SCC(=O)N2CCCCC2)cc1,inconclusive: -37.3% [at 0.0737 µM],
O=C(N/N=C/c1ccccc1O)c1cccc(C(F)(F)F)c1,inconclusive: 76.6%,
COCc1cc(C)nc(SCC(=O)Nc2ccc3c(c2)OCCO3)c1C#N,inactive,
CCCCn1c(N)c(N(C)C(=O)c2cn(-c3ccccc3)nc2-c2ccccc2)c(=O)[nH]c1=O,inconclusive: 8.12%,
COc1ccccc1C(=O)NCC(=O)OCC(=O)N1CC(C)OC(C)C1 (stereo not drawn),inconclusive,
CNC(=O)Nc1ccccc1F,,"inconclusive: 29.1 µM [cytotoxic, single point]"

Compound,"lipid storage change, negative = inhibition",Potency
CCc1ccc(NC(=O)C2CCCN(S(=O)(=O)c3c(C)[nH]c(=O)[nH]c3=O)C2)cc1 (stereo not drawn),inconclusive: 28.4%,
Cc1nc2cc(NC(=O)N3CCC(c4ccccc4)C3)ccc2n1C (stereo not drawn),,"inconclusive: 0.82 µM [activator, full curve]"
O=C(Nc1ccc2oc(-c3ccccc3Cl)nc2c1)c1cncc(Br)c1,inconclusive: -13.8%,
CCOC(=O)C(C)(C)N(Cc1cccc(C)c1)S(=O)(=O)c1ccc(Cl)c([N+](=O)[O-])c1,,active: 16.4 µM
CC(C)Oc1cccc(C(=O)NC(=S)Nc2ccc(Cl)c(C(=O)O)c2)c1,inconclusive: -46.2%,
CCOC(=O)c1cnc(SC)nc1Oc1cccc(NC(=O)c2ccc(Cl)cc2)c1,inconclusive: -31.5%,
C#CCn1cc(/C=N/NC(=O)COc2cccc3cccnc23)c2ccccc21,inconclusive: 16.6%,
CN(C)S(=O)(=O)c1cccc(C(=O)Nc2cc3c(cc2C(=O)O)OCCCO3)c1,inconclusive: -9.36%,
NS(=O)(=O)c1cccc(NC(=O)c2cccc3c(Br)cccc23)c1,,"inconclusive: 13 µM [activator, partial curve]"
CC(N)=Nc1ccc([N+](=O)[O-])cc1,inconclusive: -6.92%,
CSc1ccccc1OCc1cc(C(=O)N2C[C@H]3CC[C@H]2C3)no1,inconclusive: -36.5%,
COc1ccc(OC)c(NC(=O)CSc2nc(=O)n(CCN3CCOCC3)c3c2CCCC3)c1,inconclusive: -73.3%,
CSc1nccn1CC(=O)Nc1ccc(F)cc1,inconclusive: 7.16%,
Cc1ccc(-c2nnn(CC(=O)N(Cc3ccco3)C(C(=O)NC(C)(C)C)c3ccncc3)n2)o1 (stereo not drawn),inconclusive: -19%,
CC(C)CCNC(=O)Cn1cc2c(n1)CCCCC2,inconclusive: 29.5%,
COC(=O)c1c(NC(=O)C2CC=CCC2C(=O)O)sc(C)c1C (stereo not drawn),inconclusive: 1.08%,
Cc1nc2sc(C(=O)OCC(=O)N3c4ccccc4CC3C)c(C)c2c(=O)[nH]1 (stereo not drawn),inactive,
CCSc1nnc(-c2ccc(S(=O)(=O)N3CCOCC3)cc2)n1C,inconclusive: 69.2%,
COc1cccc(C=O)c1OCCCOc1cccc2cccnc12,,"inconclusive: 6.51 µM [falling, partial curve]"
CCCc1nc2c(s1)CCc1onc(-c3cccc([N+](=O)[O-])c3)c1-2,,"inconclusive: 5.8 µM [activator, partial curve]"
Cc1ccc2c(c1)N(C(=O)CCC(=O)NCCN1CCOCC1)CC(C)O2 (stereo not drawn),inconclusive: 37.4%,
O=C(CSc1nnnn1-c1ccccc1)N1CCN(C(=O)c2ccco2)CC1,,"inconclusive: 2.06 µM [activator, single point]"
CCN(CC)C(=O)N1CCN(S(=O)(=O)c2ccc(C)cc2)CC1,inconclusive: -15.3%,
O=c1c(F)cn(C2CCCO2)c(=O)n1Cc1c(Cl)cccc1Cl (stereo not drawn),inconclusive: 139%,
COc1cccc(Nc2ncnc3c2cnn3-c2cccc(C)c2)c1,inconclusive: 18.6%,
c1ccc(OCCSc2nnnn2-c2ccccc2)cc1,,"inconclusive: 29.1 µM [cytotoxic, single point]"

# 5 entries picked at random from the list so far:
Compound,"lipid storage change, negative = inhibition",Potency
CCCOc1ccc(-c2nn(-c3ccccc3)cc2/C=C2\SC(=S)N(C3CCS(=O)(=O)C3)C2=O)cc1 (stereo not drawn),inconclusive: 11.8%,
Cc1ccc(C)c(NC(=O)CN(C)C(=O)c2sccc2C)c1,,active: 4.61 µM
NS(=O)(=O)c1cccc(NC(=O)c2cccc3c(Br)cccc23)c1,,"inconclusive: 13 µM [activator, partial curve]"
CSc1nccn1CC(=O)Nc1ccc(F)cc1,inconclusive: 7.16%,
CCCCn1c(CCC)nc([N+](=O)[O-])c1Sc1ccc(Cl)cn1,,"inconclusive: 16.4 µM [falling, single point]"
